These are literature values, as cited in US7566550B2, “Screening method for developing drugs against pathogenic microbes having two-component system” (priority 2002, dated 2009).

The series deals with sensor kinase. As to conditions: cited from earlier work.

Turning to `Cc1cc(C(C#N)c2ccc(Cl)cc2)c(Cl)cc1NC(=O)c1cc(I)cc(I)c1O` (centres unmarked) [Closantel], the “effect on sensor kinase molecules in in vitro assay” value was “non-specific aggregation of sensor kinase molecules”.

With `NC(N)=NCCc1ccc(OCCC(c2ccccc2)(c2ccccc2)c2ccccc2)cc1` [RWJ-49815], the “effect on sensor kinase molecules in in vitro assay” value is given as “non-specific aggregation of sensor kinase molecules”.
